According to PubChem BioAssay AID540256 (National Center for Advancing Translational Sciences (NCATS), 2011):
Hit rate of the full screen: of about 300,000 compounds, about 3,700 (1.2%) were called active. The shares of active, inactive and inconclusive entries below differ from those in the screen. Calls come from the whole dose curve; tested in HEK293 cells. Potencies of inconclusive entries are doubtful fits and often do not repeat.

assay: qHTS for Inhibitors of binding or entry into cells for Lassa Virus; settings: Lassa virus pseudotype entry inhibition, cell reporter; series mostly up to 37.9 µM; note: nearly all actives have a fitted effect of over 50% in size
Potency is the fitted concentration of half-maximal effect.

SMILES	Potency
COC(=O)c1cc2c(ccn2-c2ccc(F)cc2)n1CC(=O)OC(C)C	inconclusive: 29.1 µM [inhibitor, single point]
CCCCCn1c(CN2CCN(c3cc(Cl)ccc3C)CC2)nc2c1c(=O)[nH]c(=O)n2C	inconclusive: 29.1 µM [inhibitor, single point]
COCCN1C(=O)C2=C(C1=O)C1N(C)c3ccccc3[C@@]13C[C@@H](CO)N(C(=O)c1ccc(Br)cc1)C3=N2 (stereo partly drawn)	inconclusive: 0.0299 µM [activator, full curve, poor fit]
Cc1cc(NS(=O)(=O)c2ccc(NC(=O)C(C)Oc3ccccc3Cl)cc2)no1 (stereo not drawn)	inactive
O=C(N/N=C/c1ccc(OC(F)F)cc1)C1=COCCO1	inconclusive: 10 µM [inhibitor, partial curve, poor fit]
NS(=O)(=O)c1ccc2c(c1)oc(=O)c1cc(S(N)(=O)=O)ccc12	inactive
Cc1nc(-c2ccccc2)ccc1C(=O)O	inconclusive: 12.6 µM [activator, partial curve, poor fit]
Cc1ccc(-n2ncc(C(=O)N3CCN(c4ccccn4)CC3)c2C2CCN(C(=O)OC(C)(C)C)CC2)cc1C	inconclusive: 6.31 µM [inhibitor, single point]
O=C(CCNC(=O)c1ccc(Cl)cc1)NCc1ccccc1Cl	inconclusive: 0.447 µM [inhibitor, single point]
c1c2c(cc3sc(N4CCCCC4)nc13)OCCO2	active: 1.58 µM
CC(C)CNC(=O)C(=O)NCCC1CCCCN1S(=O)(=O)c1cccs1 (stereo not drawn)	inconclusive: 12.6 µM [activator, partial curve, poor fit]
COc1ccc(CNC(=S)N/N=C/c2ccc(O)c(OC)c2)cc1	inconclusive: 0.366 µM [inhibitor, partial curve, poor fit]
COc1ccc(NC(=O)c2c(N)no[n+]2[O-])cc1	inconclusive: 3.16 µM [inhibitor, partial curve, poor fit]
Cc1cc(S(=O)(=O)N(Cc2ccc(F)cc2)CC2CCCO2)ccc1-n1cnnn1 (stereo not drawn)	inconclusive: 29.1 µM [inhibitor, single point]
COc1ccc(N2CCN(C(=O)Cn3cnc4sc(C)c(S(=O)(=O)N5CCC(C)CC5)c4c3=O)CC2)cc1	inactive
COC(=O)c1ccc(NC(=S)NC2CC(C)(C)NC(C)(C)C2)cc1	inconclusive: 3.55 µM [activator, partial curve, poor fit]
COn1c(SCc2cccc(Cl)c2)nc2ccccc2c1=O	inactive
Nc1cc(N)cc(C(=O)Nc2ccc3c(c2)C(=O)NC3=O)c1	inconclusive: 35.5 µM [activator, single point]

Reprinted at random: two entries already listed.
SMILES	Potency
COc1ccc(CNC(=S)N/N=C/c2ccc(O)c(OC)c2)cc1	inconclusive: 0.366 µM [inhibitor, partial curve, poor fit]
O=C(N/N=C/c1ccc(OC(F)F)cc1)C1=COCCO1	inconclusive: 10 µM [inhibitor, partial curve, poor fit]
